Results: the supplement of paper PMC7666118
Some of the results follow.

By UniProt entry, the sequences of proteins in these tests, tags left out. Where a name states a change or a piece, a line headed by the entry shows the natural chain unless it says otherwise.
UniProt Q00534, whole entry: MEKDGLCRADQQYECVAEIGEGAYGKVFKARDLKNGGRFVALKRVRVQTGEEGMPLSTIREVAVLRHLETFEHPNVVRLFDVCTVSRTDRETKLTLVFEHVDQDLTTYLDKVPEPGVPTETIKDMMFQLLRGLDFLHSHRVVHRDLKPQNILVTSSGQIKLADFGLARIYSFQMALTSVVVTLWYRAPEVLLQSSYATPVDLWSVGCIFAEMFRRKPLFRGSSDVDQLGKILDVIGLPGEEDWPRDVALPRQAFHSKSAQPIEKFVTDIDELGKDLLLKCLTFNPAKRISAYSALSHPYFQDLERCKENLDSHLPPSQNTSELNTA
UniProt Q8N0X4: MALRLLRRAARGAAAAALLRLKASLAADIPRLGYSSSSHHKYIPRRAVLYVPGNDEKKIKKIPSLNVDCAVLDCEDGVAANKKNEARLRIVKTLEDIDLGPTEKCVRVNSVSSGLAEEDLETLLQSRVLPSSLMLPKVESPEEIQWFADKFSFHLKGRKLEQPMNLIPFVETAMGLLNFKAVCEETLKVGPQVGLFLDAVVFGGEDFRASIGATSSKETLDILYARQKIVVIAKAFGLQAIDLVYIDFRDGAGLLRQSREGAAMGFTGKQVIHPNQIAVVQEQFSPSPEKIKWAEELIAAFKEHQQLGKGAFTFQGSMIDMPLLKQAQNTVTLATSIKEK
UniProt P51795: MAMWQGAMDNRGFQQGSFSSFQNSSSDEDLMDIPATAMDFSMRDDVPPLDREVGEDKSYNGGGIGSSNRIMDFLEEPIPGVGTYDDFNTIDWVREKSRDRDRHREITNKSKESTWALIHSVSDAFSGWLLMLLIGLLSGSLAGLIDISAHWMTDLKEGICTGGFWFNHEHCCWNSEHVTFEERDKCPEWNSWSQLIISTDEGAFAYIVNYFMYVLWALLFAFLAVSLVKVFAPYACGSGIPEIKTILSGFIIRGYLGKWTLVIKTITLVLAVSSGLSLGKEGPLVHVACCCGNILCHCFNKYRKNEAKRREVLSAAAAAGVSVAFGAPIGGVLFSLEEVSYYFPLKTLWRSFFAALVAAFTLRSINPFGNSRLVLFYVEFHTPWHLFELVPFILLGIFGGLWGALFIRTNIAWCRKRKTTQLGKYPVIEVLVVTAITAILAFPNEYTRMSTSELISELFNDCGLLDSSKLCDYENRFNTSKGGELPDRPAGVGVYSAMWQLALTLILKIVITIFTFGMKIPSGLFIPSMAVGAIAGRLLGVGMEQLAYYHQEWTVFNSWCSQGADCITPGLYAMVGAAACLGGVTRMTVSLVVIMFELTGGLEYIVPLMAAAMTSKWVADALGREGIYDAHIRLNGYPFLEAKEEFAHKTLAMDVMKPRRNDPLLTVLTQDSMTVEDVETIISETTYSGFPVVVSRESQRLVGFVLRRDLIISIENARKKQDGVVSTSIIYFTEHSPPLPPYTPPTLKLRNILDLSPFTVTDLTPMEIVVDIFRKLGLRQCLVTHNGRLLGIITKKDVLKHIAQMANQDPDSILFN
UniProt Q9Y2R0: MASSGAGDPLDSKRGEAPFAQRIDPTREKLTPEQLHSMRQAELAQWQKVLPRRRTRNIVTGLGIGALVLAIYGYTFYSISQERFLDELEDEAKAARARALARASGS
UniProt Q5VT06: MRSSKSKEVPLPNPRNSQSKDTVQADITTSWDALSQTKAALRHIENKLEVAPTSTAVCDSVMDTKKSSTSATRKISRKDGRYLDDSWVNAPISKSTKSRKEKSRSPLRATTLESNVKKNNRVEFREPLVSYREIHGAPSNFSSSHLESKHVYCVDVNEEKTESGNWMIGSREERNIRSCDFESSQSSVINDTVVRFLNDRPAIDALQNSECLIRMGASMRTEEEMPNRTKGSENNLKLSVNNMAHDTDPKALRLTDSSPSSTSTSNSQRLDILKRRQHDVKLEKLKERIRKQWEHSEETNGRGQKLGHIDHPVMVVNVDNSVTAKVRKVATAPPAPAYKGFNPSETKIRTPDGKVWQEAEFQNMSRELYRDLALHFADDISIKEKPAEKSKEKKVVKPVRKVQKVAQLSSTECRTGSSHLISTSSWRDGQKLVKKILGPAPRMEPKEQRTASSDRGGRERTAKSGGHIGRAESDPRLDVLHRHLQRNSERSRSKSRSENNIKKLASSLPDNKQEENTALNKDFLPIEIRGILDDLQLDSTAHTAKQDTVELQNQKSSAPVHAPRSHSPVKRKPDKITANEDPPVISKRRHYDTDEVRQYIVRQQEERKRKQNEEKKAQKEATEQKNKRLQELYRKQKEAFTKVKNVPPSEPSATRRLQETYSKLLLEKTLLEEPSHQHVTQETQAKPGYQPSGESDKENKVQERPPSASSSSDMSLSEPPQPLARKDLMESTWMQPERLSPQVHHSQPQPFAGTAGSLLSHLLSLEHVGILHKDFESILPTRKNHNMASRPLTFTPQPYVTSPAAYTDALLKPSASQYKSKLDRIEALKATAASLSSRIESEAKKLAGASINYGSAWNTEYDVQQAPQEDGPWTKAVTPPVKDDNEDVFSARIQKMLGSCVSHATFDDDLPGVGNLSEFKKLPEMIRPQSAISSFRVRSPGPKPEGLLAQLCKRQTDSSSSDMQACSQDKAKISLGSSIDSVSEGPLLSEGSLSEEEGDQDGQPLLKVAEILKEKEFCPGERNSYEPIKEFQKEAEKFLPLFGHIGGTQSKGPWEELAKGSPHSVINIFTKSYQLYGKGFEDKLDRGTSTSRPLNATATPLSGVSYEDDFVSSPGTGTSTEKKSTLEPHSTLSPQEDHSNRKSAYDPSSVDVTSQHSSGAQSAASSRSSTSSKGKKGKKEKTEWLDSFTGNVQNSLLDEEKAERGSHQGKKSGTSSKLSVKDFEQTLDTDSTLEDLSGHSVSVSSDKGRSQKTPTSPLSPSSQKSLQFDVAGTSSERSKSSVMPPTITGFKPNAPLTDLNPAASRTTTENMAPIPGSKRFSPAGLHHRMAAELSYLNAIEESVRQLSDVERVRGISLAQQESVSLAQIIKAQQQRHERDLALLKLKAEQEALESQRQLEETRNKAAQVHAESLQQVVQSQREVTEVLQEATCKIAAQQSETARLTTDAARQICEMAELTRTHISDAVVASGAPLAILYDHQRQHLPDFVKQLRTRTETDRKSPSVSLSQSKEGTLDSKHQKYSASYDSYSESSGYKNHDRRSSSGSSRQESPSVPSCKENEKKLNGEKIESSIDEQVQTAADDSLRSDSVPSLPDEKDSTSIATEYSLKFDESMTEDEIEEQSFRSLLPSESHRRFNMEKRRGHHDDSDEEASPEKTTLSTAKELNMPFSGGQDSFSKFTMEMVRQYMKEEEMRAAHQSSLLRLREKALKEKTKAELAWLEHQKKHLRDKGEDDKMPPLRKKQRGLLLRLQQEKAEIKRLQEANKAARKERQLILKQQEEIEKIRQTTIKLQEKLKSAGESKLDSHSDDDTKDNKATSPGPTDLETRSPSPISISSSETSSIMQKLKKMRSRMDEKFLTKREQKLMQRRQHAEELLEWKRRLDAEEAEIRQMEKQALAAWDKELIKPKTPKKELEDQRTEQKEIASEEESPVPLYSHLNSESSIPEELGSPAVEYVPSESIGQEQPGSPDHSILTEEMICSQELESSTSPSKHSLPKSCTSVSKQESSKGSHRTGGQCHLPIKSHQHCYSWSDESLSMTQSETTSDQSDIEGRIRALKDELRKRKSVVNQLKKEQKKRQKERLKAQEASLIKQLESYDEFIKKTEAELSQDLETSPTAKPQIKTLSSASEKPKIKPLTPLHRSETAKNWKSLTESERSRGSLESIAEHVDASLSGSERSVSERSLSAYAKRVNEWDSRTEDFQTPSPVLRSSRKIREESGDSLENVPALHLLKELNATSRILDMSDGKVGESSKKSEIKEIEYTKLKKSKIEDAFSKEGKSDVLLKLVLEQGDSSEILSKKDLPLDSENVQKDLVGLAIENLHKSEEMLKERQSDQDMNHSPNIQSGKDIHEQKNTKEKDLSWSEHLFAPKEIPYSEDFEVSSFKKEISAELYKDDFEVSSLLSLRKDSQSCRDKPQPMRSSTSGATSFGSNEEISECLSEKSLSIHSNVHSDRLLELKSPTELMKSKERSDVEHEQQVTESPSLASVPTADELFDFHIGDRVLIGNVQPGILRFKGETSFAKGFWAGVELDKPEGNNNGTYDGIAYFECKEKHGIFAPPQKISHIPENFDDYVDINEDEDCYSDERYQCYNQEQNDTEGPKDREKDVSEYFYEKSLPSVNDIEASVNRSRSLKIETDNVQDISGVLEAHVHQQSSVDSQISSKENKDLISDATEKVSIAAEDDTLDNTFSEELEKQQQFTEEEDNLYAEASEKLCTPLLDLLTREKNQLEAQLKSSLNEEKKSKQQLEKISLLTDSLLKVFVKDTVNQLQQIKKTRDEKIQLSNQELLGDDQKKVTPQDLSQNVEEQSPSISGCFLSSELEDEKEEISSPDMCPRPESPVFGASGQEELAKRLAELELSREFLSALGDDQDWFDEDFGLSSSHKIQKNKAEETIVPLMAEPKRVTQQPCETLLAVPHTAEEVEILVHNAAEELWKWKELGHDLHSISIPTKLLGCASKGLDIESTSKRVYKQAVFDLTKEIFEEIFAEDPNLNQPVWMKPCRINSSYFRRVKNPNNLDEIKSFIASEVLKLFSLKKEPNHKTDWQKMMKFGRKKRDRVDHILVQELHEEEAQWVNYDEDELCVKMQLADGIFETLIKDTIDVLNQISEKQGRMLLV
UniProt P48643, whole entry: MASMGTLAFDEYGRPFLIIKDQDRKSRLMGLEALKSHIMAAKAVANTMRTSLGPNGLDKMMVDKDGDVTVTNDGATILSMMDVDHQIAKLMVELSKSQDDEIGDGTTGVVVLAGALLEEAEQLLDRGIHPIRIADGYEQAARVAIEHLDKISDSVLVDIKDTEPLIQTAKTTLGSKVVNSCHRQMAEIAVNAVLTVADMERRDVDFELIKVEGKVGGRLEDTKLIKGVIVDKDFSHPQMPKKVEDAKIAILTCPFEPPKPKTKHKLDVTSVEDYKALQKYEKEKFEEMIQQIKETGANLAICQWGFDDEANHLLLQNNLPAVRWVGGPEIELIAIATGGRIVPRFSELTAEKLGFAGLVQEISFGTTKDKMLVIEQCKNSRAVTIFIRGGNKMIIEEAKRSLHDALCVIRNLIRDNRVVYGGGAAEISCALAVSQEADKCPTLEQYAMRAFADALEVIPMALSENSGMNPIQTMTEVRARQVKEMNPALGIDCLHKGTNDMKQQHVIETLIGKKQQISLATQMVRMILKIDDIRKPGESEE
UniProt Q8WWK9: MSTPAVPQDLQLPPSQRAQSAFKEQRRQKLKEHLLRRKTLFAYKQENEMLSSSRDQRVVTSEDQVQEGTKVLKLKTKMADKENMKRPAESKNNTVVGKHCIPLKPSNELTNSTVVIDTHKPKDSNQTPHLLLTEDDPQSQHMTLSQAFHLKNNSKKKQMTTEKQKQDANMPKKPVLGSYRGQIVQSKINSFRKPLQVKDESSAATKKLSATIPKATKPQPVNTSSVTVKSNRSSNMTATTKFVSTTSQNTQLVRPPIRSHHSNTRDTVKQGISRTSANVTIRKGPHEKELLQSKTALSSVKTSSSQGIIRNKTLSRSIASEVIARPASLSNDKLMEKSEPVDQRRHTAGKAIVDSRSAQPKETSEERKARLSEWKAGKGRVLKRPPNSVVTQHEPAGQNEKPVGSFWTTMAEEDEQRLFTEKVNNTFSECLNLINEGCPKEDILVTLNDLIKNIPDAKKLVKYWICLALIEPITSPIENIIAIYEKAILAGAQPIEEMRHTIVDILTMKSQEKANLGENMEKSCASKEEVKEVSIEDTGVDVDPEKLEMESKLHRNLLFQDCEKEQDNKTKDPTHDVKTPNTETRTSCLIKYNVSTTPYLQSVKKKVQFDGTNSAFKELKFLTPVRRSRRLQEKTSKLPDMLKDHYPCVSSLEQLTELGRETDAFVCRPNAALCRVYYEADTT
UniProt Q8IVM0: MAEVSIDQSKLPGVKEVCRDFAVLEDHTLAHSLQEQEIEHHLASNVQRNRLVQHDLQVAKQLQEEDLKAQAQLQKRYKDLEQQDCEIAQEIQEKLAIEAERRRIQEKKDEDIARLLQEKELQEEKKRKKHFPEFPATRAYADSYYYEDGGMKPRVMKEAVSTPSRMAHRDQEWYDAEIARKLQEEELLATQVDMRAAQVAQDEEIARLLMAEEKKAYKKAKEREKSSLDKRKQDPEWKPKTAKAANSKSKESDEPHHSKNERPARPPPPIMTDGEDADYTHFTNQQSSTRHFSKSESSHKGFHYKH
UniProt Q9P031: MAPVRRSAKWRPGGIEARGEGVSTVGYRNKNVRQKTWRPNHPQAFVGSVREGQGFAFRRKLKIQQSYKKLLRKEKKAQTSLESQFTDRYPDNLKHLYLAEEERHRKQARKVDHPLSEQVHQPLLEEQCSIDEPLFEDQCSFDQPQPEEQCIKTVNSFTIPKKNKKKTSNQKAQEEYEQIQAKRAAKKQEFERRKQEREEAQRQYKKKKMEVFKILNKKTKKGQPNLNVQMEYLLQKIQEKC

compound: COc1ccc(Cn2ccc3ccc(C(=O)NO)cc32)cc1; assay: dose-dependent thermal stabilisation call (2D-TPP, DLPTP, 10% FDR) (binary (1 = stabilised)); higher = stabilised by the compound; details: system: HL-60 intact cells; concentration range 0.04-10 µM

Target	dose-dependent thermal stabilisation call
CDK6 (UniProt Q00534)	inactive: 0
CLYBL (UniProt Q8N0X4)	inactive: 0
CLCN5 (UniProt P51795)	inactive: 0
CCDC56 (UniProt Q9Y2R0)	inactive: 0
CEP350 (UniProt Q5VT06)	inactive: 0
CCT5 (UniProt P48643)	inactive: 0
CKAP2 (UniProt Q8WWK9)	inactive: 0
CCDC88C (UniProt Q9P219)	inactive: 0
CCDC50 (UniProt Q8IVM0)	inactive: 0
CCDC59 (UniProt Q9P031)	inactive: 0

In another format: results already given
Target,dose-dependent thermal stabilisation call
CLCN5 (UniProt P51795),inactive: 0
CCDC56 (UniProt Q9Y2R0),inactive: 0
